Measured values as given in patent US20230218659A1, “Selenium-Based Compositions and Therapeutic Methods” (Hess Pharmaceuticals, Inc, priority 2020, published 2023).
At least one structure is not confirmed: it was looked up by name or label, or the drawing left a doubt.

Legend:
[1] = tested on: melanoma (MEL1) cells transfected with SF3B1 K700E mutation; test: Survival of melanoma cells transfected with splicing mutation K700E, Cell Titer Glo 2.0 luminescence; type: cell-based; settings: MEL1 (SK-MEL-1) transfected with K700E; 20 µM sodium selenite pentahydrate; 48 hours; FIG. 1
[2] = tested on: acute myeloid leukemia (KG1) cells transfected with SF3B1 K700E mutation; test: Survival of acute myeloid leukemia cells transfected with splicing mutation K700E, Cell Titer Glo 2.0 luminescence; type: cell-based; settings: KG1 (KG1-a) transfected with K700E; 20 µM sodium selenite pentahydrate; 48 hours; FIG. 1

O=[Se](O)O [sodium selenite, sodium selenite pentahydrate]
effect on survival of K700E-mutated melanoma cells [1]: cytotoxic effect | effect on survival of K700E-mutated leukemia cells [2]: cytotoxic effect
